Laboratory results taken from patent US20250221413A1, “Use and Preparation Method of Sulfoxamyl, and Oxidation System” (priority 2023, published 2025).
Where “and” joins values, the source holds several entries; their conditions need not be identical. Identical values can stand only once. Further values from the same series stand in other lists.

Test system: Meloidogyne incognita
Test: Indoor toxicity test against Meloidogyne incognita second-instar larvae (J2)
Description: Materials: the tested nematodes were collected from three different areas, namely cucumber crops in Dawenkou Town, Tai'an City, Shandong Province, and were all identified as southern root-knot nematodes (Meloidogyne incognita). The diseased roots were washed, cut into small sections of 0.5 cm to 1 cm, rinsed in 1% NaClO solution for about 30 s to 60 s, and rinsed with 200-mesh and 500-mesh sieves to collect nematode eggs for later use. The collected eggs were incubated at 25° C. using the Bayman funnel method and the second-instar larvae were collected 1 time per 24 h to ensure that the second-instar larvae selected each time were fresh and of consistent vitality.
The agent was 98% sulfoxamyl technical, and the comparison agents were 96% oxamyl technical and 87% fosthiazate technical.
The preparation for the agent was in accordance with the provisions for preparation of the liquid medicine in the Agricultural Industry Standard of the People's Republic of China NYT 1833.1-2009 “Guideline for laboratory bioassay of pesticides”, as shown in Table 6.
Methods: according to the experimental plan, the test agent was diluted to different mass concentrations, and 0.5 mL of the agent solution and 0.5 mL of the nematode solution (containing about 100 nematodes) were added into a 24-well cell culture plate. The treatment with each concentration of the agent was repeated 4 times, and auxiliary agent control and blank control were also conducted. […]

Row | Structure (SMILES) | Corrected mortality (200 mg/L, 48 h) [%] | Mortality (200 mg/L, 48 h) [%] | Mortality (200 mg/L, 72 h) [%] | Corrected mortality (400 mg/L, 24 h) | Mortality (400 mg/L, 24 h) | Corrected mortality (400 mg/L, 48 h) | Mortality (400 mg/L, 48 h) | Corrected mortality (400 mg/L, 72 h) | Mortality (400 mg/L, 72 h) | Corrected mortality (50 mg/L, 24 h) | Mortality (50 mg/L, 24 h) | Corrected mortality (50 mg/L, 48 h) | Mortality (50 mg/L, 48 h) | Corrected mortality (50 mg/L, 72 h) | Mortality (50 mg/L, 72 h) | Corrected mortality (100 mg/L, 24 h) | Mortality (100 mg/L, 24 h) | Corrected mortality (100 mg/L, 48 h) | Mortality (100 mg/L, 48 h) [%]
1 | CNC(=O)O/N=C(\SC)C(=O)N(C)C [Oxamyl, N,N-dimethyl-2-[[[(methylamino)carbonyl]oxy]imino]-2-(methylthio)acetamide] | 93.50 | 93.49 | 96.14 | 90.88% and 96.65% and 94.85% and 94.61% | 90.99% and 96.69% and 94.92% and 94.70% | 97.26% and 98.32% and 99.14% and 98.19% | 98.35% and 99.15% and 98.23% | 99.08% and 99.16% and 99.56% | 99.10% and 99.17% and 99.56% | – | – | – | – | – | – | – | – | – | –
2 | CNC(=O)O/N=C(/C(=O)N(C)C)S(C)(=O)=O [Sulfoxamyl, N,N-dimethyl-2-[[[(methylamino)carbonyl]oxy]imino]-2-(methylsulfonyl)acetamide] | – | – | – | – | – | – | – | – | – | 82.57% and 90.07% and 85.21% | 82.79% and 90.20% and 85.27% | 88.62% and 90.85% and 96.02% and 91.92% | 88.79% and 90.98% and 96.08% and 91.96% | 98.33% and 99.00% and 96.99% | 98.36% and 99.02% and 97.10% | 99.16% and 99.06% and 98.63% | 100.00% and 99.17% and 98.64% | 100.00% and 99.77% | 99.77
